Experimental data reported in the supplement of paper PMC10849652.
The list shows a part of the results.

The chains behind the UniProt entries cited, without tags or fusion partners. Where a name states a change or a piece, a line headed by the entry shows the natural chain unless it says otherwise.
UniProt P61077: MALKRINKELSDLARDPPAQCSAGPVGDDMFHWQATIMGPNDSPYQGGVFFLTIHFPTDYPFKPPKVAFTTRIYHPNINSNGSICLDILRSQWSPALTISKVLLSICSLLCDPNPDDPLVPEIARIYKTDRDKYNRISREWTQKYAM
UniProt Q9GZZ9, whole entry, looked up: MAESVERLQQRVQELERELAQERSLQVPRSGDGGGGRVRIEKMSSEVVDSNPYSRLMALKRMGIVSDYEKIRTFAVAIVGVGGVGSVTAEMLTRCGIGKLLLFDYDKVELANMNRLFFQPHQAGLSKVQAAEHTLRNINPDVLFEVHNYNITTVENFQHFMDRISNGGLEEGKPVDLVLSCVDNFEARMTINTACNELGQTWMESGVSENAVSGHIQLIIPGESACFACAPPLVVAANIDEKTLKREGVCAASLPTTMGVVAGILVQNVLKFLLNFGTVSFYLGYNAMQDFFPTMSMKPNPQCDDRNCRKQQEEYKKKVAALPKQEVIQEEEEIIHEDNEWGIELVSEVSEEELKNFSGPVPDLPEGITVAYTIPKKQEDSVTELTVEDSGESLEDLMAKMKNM
UniProt P30536, whole entry, looked up: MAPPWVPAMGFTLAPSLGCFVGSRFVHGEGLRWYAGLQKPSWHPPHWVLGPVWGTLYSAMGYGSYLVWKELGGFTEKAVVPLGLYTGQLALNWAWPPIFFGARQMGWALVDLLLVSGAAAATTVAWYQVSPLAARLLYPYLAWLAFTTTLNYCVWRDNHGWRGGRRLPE
UniProt P68371, whole entry, looked up: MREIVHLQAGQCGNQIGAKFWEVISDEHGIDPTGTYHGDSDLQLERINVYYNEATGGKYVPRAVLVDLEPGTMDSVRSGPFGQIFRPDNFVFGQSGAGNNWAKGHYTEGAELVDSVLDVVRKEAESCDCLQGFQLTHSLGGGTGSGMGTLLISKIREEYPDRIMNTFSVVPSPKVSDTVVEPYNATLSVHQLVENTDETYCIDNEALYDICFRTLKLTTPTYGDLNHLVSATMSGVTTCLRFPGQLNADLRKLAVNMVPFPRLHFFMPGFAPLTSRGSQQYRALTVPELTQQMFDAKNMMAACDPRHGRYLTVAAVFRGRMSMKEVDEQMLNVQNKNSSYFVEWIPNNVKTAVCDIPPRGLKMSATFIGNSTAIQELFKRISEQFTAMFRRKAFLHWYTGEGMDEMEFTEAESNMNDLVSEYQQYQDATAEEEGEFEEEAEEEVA
UniProt Q9C0C9: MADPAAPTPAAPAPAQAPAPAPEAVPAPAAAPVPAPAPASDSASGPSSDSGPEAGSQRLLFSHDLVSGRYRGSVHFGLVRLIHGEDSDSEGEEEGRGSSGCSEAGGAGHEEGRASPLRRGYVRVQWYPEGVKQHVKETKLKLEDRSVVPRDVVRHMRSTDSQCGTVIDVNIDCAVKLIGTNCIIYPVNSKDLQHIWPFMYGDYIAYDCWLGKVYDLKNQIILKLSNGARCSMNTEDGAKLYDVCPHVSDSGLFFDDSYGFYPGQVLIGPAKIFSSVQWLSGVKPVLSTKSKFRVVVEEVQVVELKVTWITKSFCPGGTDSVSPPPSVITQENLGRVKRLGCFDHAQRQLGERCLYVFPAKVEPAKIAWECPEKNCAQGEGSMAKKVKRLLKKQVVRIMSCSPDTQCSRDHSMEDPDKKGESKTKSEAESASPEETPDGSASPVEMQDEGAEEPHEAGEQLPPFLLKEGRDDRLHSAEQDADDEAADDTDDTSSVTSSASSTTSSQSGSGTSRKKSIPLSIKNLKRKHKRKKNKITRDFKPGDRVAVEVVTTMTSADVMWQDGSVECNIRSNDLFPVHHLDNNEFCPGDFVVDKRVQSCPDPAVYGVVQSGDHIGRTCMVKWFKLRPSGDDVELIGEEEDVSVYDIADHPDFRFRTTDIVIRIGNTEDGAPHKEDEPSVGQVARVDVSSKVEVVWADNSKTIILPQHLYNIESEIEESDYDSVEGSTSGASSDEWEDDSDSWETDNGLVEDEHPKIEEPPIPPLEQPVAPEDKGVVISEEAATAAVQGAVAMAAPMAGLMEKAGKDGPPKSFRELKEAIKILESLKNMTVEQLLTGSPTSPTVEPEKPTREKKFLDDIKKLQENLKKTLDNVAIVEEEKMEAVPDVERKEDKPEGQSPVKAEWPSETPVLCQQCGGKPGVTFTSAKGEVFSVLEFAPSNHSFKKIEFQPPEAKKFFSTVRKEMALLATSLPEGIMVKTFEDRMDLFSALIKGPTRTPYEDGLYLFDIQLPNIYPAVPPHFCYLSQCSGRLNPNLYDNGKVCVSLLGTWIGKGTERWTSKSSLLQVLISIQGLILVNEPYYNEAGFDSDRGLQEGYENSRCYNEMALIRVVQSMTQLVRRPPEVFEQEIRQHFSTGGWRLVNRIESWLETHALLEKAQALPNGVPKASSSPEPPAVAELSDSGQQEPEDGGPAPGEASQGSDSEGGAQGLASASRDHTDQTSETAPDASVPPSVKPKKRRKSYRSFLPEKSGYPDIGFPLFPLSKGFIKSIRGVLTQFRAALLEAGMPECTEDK
UniProt P63146, whole entry, looked up: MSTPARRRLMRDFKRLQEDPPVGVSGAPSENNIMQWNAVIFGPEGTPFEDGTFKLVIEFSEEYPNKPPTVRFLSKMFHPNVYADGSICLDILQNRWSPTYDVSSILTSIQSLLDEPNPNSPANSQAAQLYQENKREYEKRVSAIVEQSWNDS
UniProt P62253: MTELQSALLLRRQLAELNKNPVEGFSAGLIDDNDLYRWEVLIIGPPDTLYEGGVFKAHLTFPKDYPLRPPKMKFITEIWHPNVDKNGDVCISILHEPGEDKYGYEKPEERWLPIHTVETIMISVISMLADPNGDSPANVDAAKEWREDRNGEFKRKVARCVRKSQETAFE
UniProt Q05086: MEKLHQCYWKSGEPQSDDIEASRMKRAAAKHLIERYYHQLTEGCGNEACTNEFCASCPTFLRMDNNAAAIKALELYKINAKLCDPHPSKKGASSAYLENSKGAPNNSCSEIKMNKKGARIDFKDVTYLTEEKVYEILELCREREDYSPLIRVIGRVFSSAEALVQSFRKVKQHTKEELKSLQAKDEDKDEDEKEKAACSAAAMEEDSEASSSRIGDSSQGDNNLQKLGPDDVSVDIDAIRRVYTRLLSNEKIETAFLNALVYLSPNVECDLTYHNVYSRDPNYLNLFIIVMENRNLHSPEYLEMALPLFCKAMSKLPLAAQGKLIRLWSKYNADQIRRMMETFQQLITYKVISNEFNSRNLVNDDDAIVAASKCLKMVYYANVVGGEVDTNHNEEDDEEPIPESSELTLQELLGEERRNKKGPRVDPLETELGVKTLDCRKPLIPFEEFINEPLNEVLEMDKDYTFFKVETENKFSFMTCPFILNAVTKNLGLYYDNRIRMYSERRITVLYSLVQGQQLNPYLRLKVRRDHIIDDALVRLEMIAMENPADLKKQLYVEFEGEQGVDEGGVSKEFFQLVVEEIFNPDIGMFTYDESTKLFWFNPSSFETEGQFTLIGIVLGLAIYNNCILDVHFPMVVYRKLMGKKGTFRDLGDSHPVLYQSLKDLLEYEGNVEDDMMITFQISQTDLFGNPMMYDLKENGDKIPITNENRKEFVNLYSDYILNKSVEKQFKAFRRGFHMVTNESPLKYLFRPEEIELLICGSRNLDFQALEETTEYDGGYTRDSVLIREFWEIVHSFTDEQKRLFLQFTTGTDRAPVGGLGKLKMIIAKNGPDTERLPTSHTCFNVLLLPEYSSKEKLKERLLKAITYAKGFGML
UniProt P62256: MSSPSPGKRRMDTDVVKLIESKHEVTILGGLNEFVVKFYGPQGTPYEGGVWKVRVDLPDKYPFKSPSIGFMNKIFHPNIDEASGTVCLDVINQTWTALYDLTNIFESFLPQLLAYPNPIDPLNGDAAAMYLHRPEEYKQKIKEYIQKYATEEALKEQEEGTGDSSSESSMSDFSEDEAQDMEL
UniProt Q99598: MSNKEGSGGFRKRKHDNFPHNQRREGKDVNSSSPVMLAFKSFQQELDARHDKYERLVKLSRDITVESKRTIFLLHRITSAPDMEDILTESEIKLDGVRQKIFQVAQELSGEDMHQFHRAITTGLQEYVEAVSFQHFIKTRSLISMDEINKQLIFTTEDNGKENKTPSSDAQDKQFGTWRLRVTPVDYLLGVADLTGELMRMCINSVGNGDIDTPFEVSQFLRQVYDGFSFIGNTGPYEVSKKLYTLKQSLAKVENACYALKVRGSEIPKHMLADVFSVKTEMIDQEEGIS
UniProt Q9BUF5, whole entry, looked up: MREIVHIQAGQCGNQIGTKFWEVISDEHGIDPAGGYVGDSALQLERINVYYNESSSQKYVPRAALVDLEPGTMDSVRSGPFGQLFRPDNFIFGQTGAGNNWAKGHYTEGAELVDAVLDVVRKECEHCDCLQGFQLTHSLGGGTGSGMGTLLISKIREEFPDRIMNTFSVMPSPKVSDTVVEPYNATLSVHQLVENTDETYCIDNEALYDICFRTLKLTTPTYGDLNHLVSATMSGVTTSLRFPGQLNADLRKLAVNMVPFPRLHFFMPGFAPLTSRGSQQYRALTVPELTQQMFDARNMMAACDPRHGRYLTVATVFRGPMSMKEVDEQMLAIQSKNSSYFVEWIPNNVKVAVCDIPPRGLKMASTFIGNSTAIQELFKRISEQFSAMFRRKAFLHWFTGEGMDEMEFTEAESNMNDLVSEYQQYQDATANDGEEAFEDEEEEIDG
UniProt Q15631: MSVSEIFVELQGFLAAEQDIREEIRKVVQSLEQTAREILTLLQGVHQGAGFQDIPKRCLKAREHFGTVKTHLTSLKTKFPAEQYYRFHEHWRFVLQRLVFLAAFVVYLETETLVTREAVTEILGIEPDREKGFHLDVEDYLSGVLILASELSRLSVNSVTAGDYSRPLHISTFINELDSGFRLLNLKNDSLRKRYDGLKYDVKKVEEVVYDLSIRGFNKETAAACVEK
UniProt Q8NG68: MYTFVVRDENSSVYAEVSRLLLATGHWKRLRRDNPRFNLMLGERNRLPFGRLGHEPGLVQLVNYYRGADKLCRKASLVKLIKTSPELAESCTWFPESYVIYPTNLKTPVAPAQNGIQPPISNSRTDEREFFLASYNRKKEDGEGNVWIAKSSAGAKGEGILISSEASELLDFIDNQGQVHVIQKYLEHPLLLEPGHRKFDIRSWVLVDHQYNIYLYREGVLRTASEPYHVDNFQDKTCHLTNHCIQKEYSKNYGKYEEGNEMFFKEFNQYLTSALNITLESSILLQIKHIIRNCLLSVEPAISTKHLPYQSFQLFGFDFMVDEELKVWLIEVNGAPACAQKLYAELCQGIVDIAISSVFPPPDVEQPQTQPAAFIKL
UniProt Q8TBC4: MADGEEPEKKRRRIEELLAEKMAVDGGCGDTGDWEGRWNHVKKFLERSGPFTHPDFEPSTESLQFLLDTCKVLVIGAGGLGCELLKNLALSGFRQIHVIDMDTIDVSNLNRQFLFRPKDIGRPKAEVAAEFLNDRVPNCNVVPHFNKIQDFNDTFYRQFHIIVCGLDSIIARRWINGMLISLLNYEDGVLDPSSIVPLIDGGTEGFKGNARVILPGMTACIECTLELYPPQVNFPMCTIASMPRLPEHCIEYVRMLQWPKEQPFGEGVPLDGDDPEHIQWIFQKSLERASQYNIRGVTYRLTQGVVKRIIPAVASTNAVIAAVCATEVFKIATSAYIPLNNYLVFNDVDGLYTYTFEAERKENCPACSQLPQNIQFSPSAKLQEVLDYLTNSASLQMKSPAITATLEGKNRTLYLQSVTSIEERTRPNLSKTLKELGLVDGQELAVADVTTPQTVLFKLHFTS

Assays:
Assay in all cases: log2 fold change, soluble protein after heating vs DMSO (PISA); higher = thermal stabilisation; K562 cells, 10 uM, 30 min; active = over 0.2 and 3.5 SD of the protein, either way, in both replicates (recomputed)
[1] = compound: CC[C@@H]1C(=O)N(C)c2cnc(Nc3ccc(C(=O)NC4CCN(C)CC4)cc3OC)nc2N1C1CCCC1
Outline: (§1)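 For each measurement, 10 μM compound was applied for 30 min to K562 cells at 2×10^6 cells/mL. Aliquots were heated for 3 min across 48°C-58°C, pooled, and extracted in PBS with 0.5% NP-40 at 4°C; the supernatant after 21,000xg for 90 min was soluble protein. This was quantified by TMTpro 16plex LC-MS/MS with channel sums equalised, and thermal stability was reported relative to control samples from duplicates, on a log2 fold-change scale.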

[2] = compound: CC[C@@H]1C(=O)N(C)c2cnc(Nc3ccc(C(=O)N[C@H]4CC[C@H](N5CCN(CC6CC6)CC5)CC4)cc3OC)nc2N1C(C)C [volasertib]
Outline: as §1

[3] = compound: CC[C@H](C)N1C=C(C2=C(C=C(C=C21)C3=CN=C(C=C3)N4CCNCC4)C(=O)NCC5=C(C=C(NC5=O)C)C)C
Outline: as §1

[4] = compound: CC[C@H](C)[C@@H](C(=O)N[C@@H]([C@@H](C)O)C(=O)N[C@@H](CC(C)C)C(=O)[C@]1(CO1)C)NC(=O)[C@H]([C@@H](C)CC)N(C)C(=O)C [epoxomicin]
Outline: as §1

[5] = compound: CCn1c(C(=O)N(C2CC2)C2CC2)cc2c3c(ncn3C)c(Nc3cc(C)n(C)n3)nc21
Outline: as §1

[6] = compound: CCn1cc(-c2ccnc3[nH]c(-c4cccc(CN(C)C)c4)cc23)c(-c2ccc(NC(=O)N(C)C)cc2)n1
Outline: as §1

[7] = compound: CN(C)CC(=O)Nc1ccc2[nH]c(=O)c3ccccc3c2c1
Outline: as §1

[8] = compound: CN(CCOC1=CC=C(C=C1)C[C@H]2C(=O)NC(=O)S2)C3=CC=CC=N3 (racemic) [rosiglitazone]
Outline: as §1

[9] = compound: CN1C2=C(C3=C1C(=O)N(N=C3)CC4=CC(=CC=C4)N)SC(=C2)S(=O)C
Outline: as §1

[10] = compound: CN1CCC(CNc2ccc3ncc(-c4cccc(OC(F)(F)F)c4)n3n2)CC1
Outline: as §1

[11] = compound: CN1CCN(CCOc2cc(OC3CCOCC3)c3c(Nc4c(Cl)ccc5c4OCO5)ncnc3c2)CC1 [saracatinib]
Outline: as §1

[12] = compound: CN1CCN(c2nc(C3=C(c4c[nH]c5ccccc45)C(=O)NC3=O)c3ccccc3n2)CC1 [sotrastaurin]
Outline: as §1

[13] = compound: CN1CC[C@H](c2c(O)cc(O)c3c(=O)cc(-c4ccccc4Cl)oc23)[C@H](O)C1 [alvocidib]
Outline: as §1

[14] = compound: CN1CCc2c(c3ccccc3n2Cc2ccc(C(=O)NO)cc2)C1 [Tubastatin A]
Outline: as §1

[15] = compound: CNC(=O)C1=CC=CC=C1NC2=NC(=NC=C2Cl)NC3=C(C=C(C=C3)N4CCOCC4)OC
Outline: as §1

[16] = compound: CNC(=O)c1ccc(Nc2ncc(C(F)(F)F)c(NCc3nccnc3N(C)S(C)(=O)=O)n2)cc1 [defactinib]
Outline: as §1

[17] = compound: CNCc1ccc(-c2[nH]c3cc(F)cc4c3c2CCNC4=O)cc1 [rucaparib]
Outline: as §1

[18] = compound: CNc1nc(-c2ccc3c(N)n[nH]c3c2)cc(N2C[C@@H](C(=O)NC3CCCCC3)CC[C@H]2C)n1
Outline: as §1

[19] = compound: COC(=O)N[C@@H](C)CNc1nccc(-c2cn(C(C)C)nc2-c2cc(Cl)cc(NS(C)(=O)=O)c2F)n1 [encorafenib]
Outline: as §1

[20] = compound: COC(=O)[C@H](CCSC)NC(=O)C1=C(C=C(C=C1)NC[C@H](CS)N)C2=CC=CC=C2
Outline: as §1

Measured: log2 fold change

UBE2D3 isoform 3 (UniProt P61077)
inactive: [1] -0.034 | [2] -0.049 | [3] 0.007 | [4] 0.012 | [5] 0.028 | [6] 0 | [7] 0.025 | [8] 0.019 | [9] -0.057 | [10] -0.087 | [11] 0 | [12] 0.024 | [13] -0.002 | [14] 0.065 | [15] 0.023 | [16] -0.106 | [17] -0.015 | [18] 0.045 | [19] 0.006 | [20] -0.05

UBA5 (UniProt Q9GZZ9)
inactive: [1] -0.015 | [2] 0.032 | [3] 0.024 | [4] 0.041 | [5] 0.009 | [6] -0.066 | [7] -0.021 | [8] 0.021 | [9] -0.052 | [10] -0.033 | [11] 0.02 | [12] 0.013 | [13] 0.029 | [14] -0.074 | [15] -0.004 | [16] 0.003 | [17] -0.025 | [18] -0.038 | [19] 0.027 | [20] -0.002

TSPO (UniProt P30536)
inactive: [1] 0.095 | [2] 0.124 | [3] -0.067 | [4] -0.037 | [5] 0.001 | [6] 0.023 | [7] 0.068 | [8] 0.006 | [9] -0.026 | [10] 0.048 | [11] 0.116 | [12] 0.047 | [13] 0.042 | [14] 0.026 | [15] 0.064 | [16] -0.013 | [17] -0.097 | [18] -0.068 | [19] 0.009 | [20] 0.11

TUBB4B (UniProt P68371)
inactive: [1] -0.032 | [2] 0.044 | [3] 0.007 | [4] 0.024 | [5] -0.01 | [6] 0.018 | [7] 0.011 | [8] 0.003 | [9] -0.043 | [10] -0.061 | [11] 0.013 | [12] 0.009 | [13] -0.081 | [14] -0.078 | [15] -0.065 | [16] -0.042 | [17] -0.013 | [18] -0.011 | [19] -0.02 | [20] -0.019

UBE2O (UniProt Q9C0C9)
inactive: [1] -0.01 | [2] -0.045 | [3] 0.016 | [4] -0.005 | [5] -0.109 | [6] -0.043 | [7] 0.018 | [8] 0.032 | [9] -0.041 | [10] -0.146 | [11] -0.041 | [12] -0.026 | [13] -0.044 | [14] 0.076 | [15] -0.093 | [16] -0.049 | [17] 0.053 | [18] 0.041 | [19] -0.011 | [20] -0.02

UBE2B (UniProt P63146)
inactive: [1] -0.057 | [2] -0.143 | [3] 0.024 | [4] 0.021 | [5] 0.082 | [6] 0.034 | [7] 0.051 | [8] 0.074 | [9] 0.094 | [10] 0.092 | [11] -0.017 | [12] -0.011 | [13] -0.026 | [14] -0.084 | [15] 0.058 | [16] -0.088 | [17] -0.035 | [18] -0.072 | [19] 0.043 | [20] -0.031

TUFM (UniProt P49411)
inactive: [1] 0.033 | [2] 0.001 | [3] 0.094 | [4] 0.065 | [5] 0.019 | [6] -0.127 | [7] 0.047 | [8] 0.061 | [9] -0.135 | [10] -0.164 | [11] -0.057 | [12] -0.05 | [13] -0.197 | [14] -0.142 | [15] 0.017 | [16] -0.049 | [17] -0.062 | [18] 0.099 | [19] 0.026 | [20] -0.031

UBE2G1 (UniProt P62253)
inactive: [1] -0.032 | [2] -0.066 | [3] 0.041 | [4] -0.066 | [5] 0.033 | [6] 0.02 | [7] -0.002 | [8] 0.089 | [9] -0.076 | [10] -0.047 | [11] 0.002 | [12] 0.002 | [13] -0.094 | [14] -0.074 | [15] 0.029 | [16] -0.045 | [17] -0.037 | [18] -0.01 | [19] 0.023 | [20] 0.061

UBE3A (UniProt Q05086)
inactive: [1] -0.016 | [2] -0.045 | [3] 0.01 | [4] 0.027 | [5] -0.008 | [6] -0.049 | [7] -0.019 | [8] 0.008 | [9] -0.072 | [10] -0.016 | [11] 0.022 | [12] 0.009 | [13] -0.029 | [14] 0.035 | [15] -0.027 | [16] -0.026 | [17] -0.016 | [18] -0.014 | [19] -0.01 | [20] 0.015

UBE2H (UniProt P62256)
inactive: [1] -0.033 | [2] -0.154 | [3] 0.036 | [4] 0.045 | [5] 0.029 | [6] 0.029 | [7] 0.002 | [8] 0.006 | [9] -0.029 | [10] -0.047 | [11] 0 | [12] -0.012 | [13] -0.028 | [14] -0.022 | [15] 0.031 | [16] -0.04 | [17] -0.025 | [18] -0.086 | [19] 0.034 | [20] -0.001

TSNAX (UniProt Q99598)
inactive: [1] 0.037 | [2] 0.079 | [3] -0.029 | [4] 0.014 | [5] 0.006 | [6] -0.022 | [7] -0.006 | [8] -0.005 | [9] -0.058 | [10] 0.01 | [11] 0.035 | [12] 0.044 | [13] -0.002 | [14] 0.009 | [15] -0.006 | [16] -0.006 | [17] 0.014 | [18] -0.053 | [19] -0.017 | [20] 0.005

TTC27 (UniProt Q6P3X3)
inactive: [1] -0.098 | [2] -0.316 | [3] 0.03 | [4] -0.046 | [5] -0.016 | [6] 0.054 | [7] 0.086 | [8] -0.014 | [9] 0.308 | [10] -0.169 | [11] -0.107 | [12] -0.203 | [13] 0.072 | [14] 0.057 | [15] -0.061 | [16] -0.093 | [17] 0.303 | [18] 0.095 | [19] 0.116 | [20] -0.091

TUBB6 (UniProt Q9BUF5)
inactive: [1] -0.013 | [2] 0.032 | [3] 0.013 | [4] 0.021 | [5] -0.019 | [6] -0.017 | [7] -0.013 | [8] -0.017 | [9] -0.044 | [10] -0.091 | [11] 0.055 | [12] 0.103 | [13] -0.008 | [14] 0.017 | [15] -0.067 | [16] -0.012 | [17] 0.03 | [18] 0.001 | [19] 0.018 | [20] -0.004

TSN (UniProt Q15631)
inactive: [1] 0.04 | [2] -0.014 | [3] -0.042 | [4] -0.032 | [5] -0.028 | [6] -0.033 | [7] 0.025 | [8] 0.011 | [9] -0.108 | [10] 0.03 | [11] -0.002 | [12] 0.013 | [13] -0.019 | [14] -0.018 | [15] -0.038 | [16] -0.005 | [17] -0.059 | [18] 0.031 | [19] -0.008 | [20] -0.019

TTL (UniProt Q8NG68)
inactive: [1] -0.035 | [2] 0.054 | [3] -0.01 | [4] -0.012 | [5] -0.005 | [6] -0.118 | [7] 0.013 | [8] -0.025 | [9] -0.041 | [10] -0.067 | [11] 0 | [12] -0.052 | [13] -0.053 | [14] 0.047 | [15] -0.008 | [16] 0.021 | [17] 0 | [18] -0.017 | [19] -0.022 | [20] -0.039

UBA3 (UniProt Q8TBC4)
inactive: [1] -0.064 | [2] -0.031 | [3] 0.083 | [4] 0.08 | [5] -0.073 | [6] -0.106 | [7] 0.046 | [8] 0.083 | [9] -0.094 | [10] -0.193 | [11] 0.04 | [12] -0.07 | [13] -0.154 | [14] 0.009 | [15] -0.027 | [16] -0.067 | [17] -0.063 | [18] 0.051 | [19] 0.036 | [20] -0.011
